Target: Neuronal acetylcholine receptor subunit alpha-4 (Rattus norvegicus, UniProt P09483)

Sequences of proteins named here, by UniProt entry; tags and fusion partners are left off. A change or cut given only in a name is not applied to a line headed by its entry.
UniProt P09483: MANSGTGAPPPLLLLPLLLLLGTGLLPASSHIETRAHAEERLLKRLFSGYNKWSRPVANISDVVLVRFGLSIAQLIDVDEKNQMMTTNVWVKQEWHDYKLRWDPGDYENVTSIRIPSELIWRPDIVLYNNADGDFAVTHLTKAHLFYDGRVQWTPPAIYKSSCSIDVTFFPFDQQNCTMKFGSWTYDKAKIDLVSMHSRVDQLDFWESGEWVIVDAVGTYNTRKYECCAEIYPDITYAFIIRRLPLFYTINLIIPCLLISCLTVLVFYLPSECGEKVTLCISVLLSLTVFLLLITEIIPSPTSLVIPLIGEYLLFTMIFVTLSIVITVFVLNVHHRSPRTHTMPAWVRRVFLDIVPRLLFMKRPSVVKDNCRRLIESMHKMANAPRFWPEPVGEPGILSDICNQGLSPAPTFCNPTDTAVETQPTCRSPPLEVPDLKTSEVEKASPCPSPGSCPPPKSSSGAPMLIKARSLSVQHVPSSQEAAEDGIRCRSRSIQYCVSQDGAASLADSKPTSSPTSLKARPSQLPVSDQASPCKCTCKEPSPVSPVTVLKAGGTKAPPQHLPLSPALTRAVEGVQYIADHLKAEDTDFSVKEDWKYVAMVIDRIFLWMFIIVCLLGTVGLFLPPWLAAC

Structure (SMILES): CN1CC[C@]23c4c5ccc(O)c4O[C@H]2[C@@H](O)C=C[C@H]3[C@H]1C5
- Ki: > 10 µM

From BindingDB's records for doi:10.1126/science.279.5347.77 (Abbott Laboratories, 1998)
